Consider 1 molecule from paper PMC7532686.

These are yes or no findings as the source states them, for the method shown. Binding seen in cells or lysates may run through a third protein. Some entries that bind do so weakly or less than the wild type.

For the experiment, the target named is T1, Cysteine-rich protein 2 (CSRP2) (UniProt Q16527).
T1 sequence: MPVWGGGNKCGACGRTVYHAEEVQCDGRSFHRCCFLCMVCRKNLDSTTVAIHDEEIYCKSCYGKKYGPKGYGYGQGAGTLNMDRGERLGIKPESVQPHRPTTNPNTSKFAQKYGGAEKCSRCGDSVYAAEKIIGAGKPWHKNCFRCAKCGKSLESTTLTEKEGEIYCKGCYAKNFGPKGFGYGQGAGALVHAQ
Description: co-IP; HCT116/CSRP2 cells lysed in cold RIPA buffer; anti-CSRP2 (or anti-p130Cas) antibody overnight at 4 °C, captured on protein A beads; SDS-PAGE and Western blot.

B1: p130Cas (protein, UniProt P56945 1-870)
chain: MNHLNVLAKALYDNVAESPDELSFRKGDIMTVLEQDTQGLDGWWLCSLHGRQGIVPGNRLKILVGMYDKKPAGPGPGPPATPAQPQPGLHAPAPPASQYTPMLPNTYQPQPDSVYLVPTPSKAQQGLYQVPGPSPQFQSPPAKQTSTFSKQTPHHPFPSPATDLYQVPPGPGGPAQDIYQVPPSAGMGHDIYQVPPSMDTRSWEGTKPPAKVVVPTRVGQGYVYEAAQPEQDEYDIPRHLLAPGPQDIYDVPPVRGLLPSQYGQEVYDTPPMAVKGPNGRDPLLEVYDVPPSVEKGLPPSNHHAVYDVPPSVSKDVPDGPLLREETYDVPPAFAKAKPFDPARTPLVLAAPPPDSPPAEDVYDVPPPAPDLYDVPPGLRRPGPGTLYDVPRERVLPPEVADGGVVDSGVYAVPPPAEREAPAEGKRLSASSTGSTRSSQSASSLEVAGPGREPLELEVAVEALARLQQGVSATVAHLLDLAGSAGATGSWRSPSEPQEPLVQDLQAAVAAVQSAVHELLEFARSAVGNAAHTSDRALHAKLSRQLQKMEDVHQTLVAHGQALDAGRGGSGATLEDLDRLVACSRAVPEDAKQLASFLHGNASLLFRRTKATAPGPEGGGTLHPNPTDKTSSIQSRPLPSPPKFTSQDSPDGQYENSEGGWMEDYDYVHLQGKEEFEKTQKELLEKGSITRQGKSQLELQQLKQFERLEQEVSRPIDHDLANWTPAQPLAPGRTGGLGPSDRQLLLFYLEQCEANLTTLTNAVDAFFTAVATNQPPKIFVAHSKFVILSAHKLVFIGDTLSRQAKAADVRSQVTHYSNLLCDLLRGIVATTKAAALQYPSPSAAQDMVERVKELGHSTQQFRRVLGQLAAA
B1: the binding result is “binds”.
